Some results were stated once for a whole list of compounds, not compound by compound.
Assay: Vapor pressure of the sublimable substance
Details: normal temperatures (e.g. 5° C. to 35° C.); absolute pressure
Procedure: The sublimable substance has a vapor pressure of 0.1 Pa or more and 1.0 Pa or less at normal temperatures. Here, the normal temperatures include a room temperature. The normal temperatures fall within a temperature range of 5° C. or more and 35° C. or less, for example. The normal temperatures fall within a temperature range of 10° C. or more and 30° C. or less, for example. In this specification, the value of vapor pressure is indicated as absolute pressure relative to absolute vacuum.

SMILES: CC(=NO)C(C)(C)C [pinacolone oxime]
- vapor pressure at normal temperatures: higher than 1.0 Pa

Reference: patent US20240290636A1, “SUBSTRATE TREATING METHOD, SUBSTRATE TREATING APPARATUS, AND TREATMENT LIQUID” (SCREEN Holdings Co., Ltd., priority 2021, published 2024)
